# In the supplement of paper PMC12823440, “Inhibitors supercharge kinase turnover through native proteolytic circuits” (Nature, 2025):
# Chains of the proteins cited; added tags and fusions are not shown. Lines headed by an entry give the natural chain unless they say otherwise; changes in a name come on top.
# UniProt Q06187: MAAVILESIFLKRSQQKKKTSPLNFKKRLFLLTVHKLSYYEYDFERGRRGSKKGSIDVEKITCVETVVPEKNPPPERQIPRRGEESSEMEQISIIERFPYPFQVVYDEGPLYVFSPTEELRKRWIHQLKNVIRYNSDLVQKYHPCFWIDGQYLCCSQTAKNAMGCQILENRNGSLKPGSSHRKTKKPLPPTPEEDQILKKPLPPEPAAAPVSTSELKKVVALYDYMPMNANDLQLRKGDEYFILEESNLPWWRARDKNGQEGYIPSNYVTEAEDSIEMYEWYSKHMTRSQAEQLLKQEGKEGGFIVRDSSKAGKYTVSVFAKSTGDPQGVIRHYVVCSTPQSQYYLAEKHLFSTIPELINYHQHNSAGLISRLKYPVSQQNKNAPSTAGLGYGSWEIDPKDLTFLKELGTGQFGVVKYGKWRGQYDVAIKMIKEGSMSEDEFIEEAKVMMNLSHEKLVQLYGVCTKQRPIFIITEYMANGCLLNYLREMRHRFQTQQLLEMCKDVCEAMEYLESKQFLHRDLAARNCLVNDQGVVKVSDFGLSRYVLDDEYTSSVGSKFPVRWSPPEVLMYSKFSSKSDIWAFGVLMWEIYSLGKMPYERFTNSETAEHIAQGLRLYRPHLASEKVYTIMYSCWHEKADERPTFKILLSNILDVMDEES
# UniProt Q13555: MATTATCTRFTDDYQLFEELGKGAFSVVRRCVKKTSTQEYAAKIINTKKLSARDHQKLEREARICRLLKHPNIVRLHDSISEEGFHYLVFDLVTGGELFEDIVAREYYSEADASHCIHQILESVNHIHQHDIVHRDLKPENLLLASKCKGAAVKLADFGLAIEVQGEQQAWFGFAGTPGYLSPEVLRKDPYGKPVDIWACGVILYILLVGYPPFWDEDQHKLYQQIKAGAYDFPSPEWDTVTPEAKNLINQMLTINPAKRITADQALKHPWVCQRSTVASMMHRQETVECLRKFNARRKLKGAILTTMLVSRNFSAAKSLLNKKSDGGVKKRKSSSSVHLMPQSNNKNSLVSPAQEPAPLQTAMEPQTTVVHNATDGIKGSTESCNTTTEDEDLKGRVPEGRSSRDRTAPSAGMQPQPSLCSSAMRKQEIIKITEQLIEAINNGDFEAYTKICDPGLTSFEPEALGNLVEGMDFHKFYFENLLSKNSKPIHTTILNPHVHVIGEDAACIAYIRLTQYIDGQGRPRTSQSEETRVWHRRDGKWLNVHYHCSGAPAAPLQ
# UniProt Q15131: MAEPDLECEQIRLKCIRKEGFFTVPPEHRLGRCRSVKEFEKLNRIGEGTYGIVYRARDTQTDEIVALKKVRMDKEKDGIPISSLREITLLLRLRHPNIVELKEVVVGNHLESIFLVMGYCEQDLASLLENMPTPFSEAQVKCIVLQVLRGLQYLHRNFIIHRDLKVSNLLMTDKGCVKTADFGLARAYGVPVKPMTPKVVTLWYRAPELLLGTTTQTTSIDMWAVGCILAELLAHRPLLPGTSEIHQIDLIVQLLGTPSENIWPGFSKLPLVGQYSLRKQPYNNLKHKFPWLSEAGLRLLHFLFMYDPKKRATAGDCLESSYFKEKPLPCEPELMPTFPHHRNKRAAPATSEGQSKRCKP
# UniProt Q00526: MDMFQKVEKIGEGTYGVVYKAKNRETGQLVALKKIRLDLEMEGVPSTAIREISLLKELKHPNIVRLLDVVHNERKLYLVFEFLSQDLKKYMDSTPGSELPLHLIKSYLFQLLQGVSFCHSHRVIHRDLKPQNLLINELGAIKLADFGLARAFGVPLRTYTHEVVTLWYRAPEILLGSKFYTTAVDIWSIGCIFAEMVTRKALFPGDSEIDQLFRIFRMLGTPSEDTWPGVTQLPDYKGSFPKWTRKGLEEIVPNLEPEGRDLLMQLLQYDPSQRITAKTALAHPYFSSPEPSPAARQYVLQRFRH
# UniProt P11802: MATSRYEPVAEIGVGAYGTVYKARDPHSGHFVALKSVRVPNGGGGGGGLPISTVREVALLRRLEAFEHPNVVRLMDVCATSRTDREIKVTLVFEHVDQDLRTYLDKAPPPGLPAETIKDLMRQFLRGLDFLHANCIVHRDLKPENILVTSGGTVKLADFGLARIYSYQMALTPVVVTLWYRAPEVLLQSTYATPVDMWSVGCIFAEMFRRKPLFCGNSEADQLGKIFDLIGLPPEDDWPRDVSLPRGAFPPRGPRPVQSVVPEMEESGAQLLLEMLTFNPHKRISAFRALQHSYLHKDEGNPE
# UniProt Q00535, whole entry, looked up: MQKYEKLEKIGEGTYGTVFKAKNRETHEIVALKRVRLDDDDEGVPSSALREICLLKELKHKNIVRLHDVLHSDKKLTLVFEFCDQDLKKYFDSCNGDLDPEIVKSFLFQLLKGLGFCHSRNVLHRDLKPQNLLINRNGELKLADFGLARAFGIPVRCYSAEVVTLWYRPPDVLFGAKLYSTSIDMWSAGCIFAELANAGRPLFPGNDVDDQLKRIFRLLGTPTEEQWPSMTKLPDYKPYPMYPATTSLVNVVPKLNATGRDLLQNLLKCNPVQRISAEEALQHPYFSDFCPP
# UniProt Q00534, whole entry: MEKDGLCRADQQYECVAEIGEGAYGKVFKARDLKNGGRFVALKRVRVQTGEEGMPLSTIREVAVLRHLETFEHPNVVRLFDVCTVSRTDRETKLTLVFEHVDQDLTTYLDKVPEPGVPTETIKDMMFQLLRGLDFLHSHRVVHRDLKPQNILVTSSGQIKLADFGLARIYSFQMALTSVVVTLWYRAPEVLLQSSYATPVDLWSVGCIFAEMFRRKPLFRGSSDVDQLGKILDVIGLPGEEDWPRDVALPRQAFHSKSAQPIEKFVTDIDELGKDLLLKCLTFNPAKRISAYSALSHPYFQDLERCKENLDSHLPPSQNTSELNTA
# UniProt P50613: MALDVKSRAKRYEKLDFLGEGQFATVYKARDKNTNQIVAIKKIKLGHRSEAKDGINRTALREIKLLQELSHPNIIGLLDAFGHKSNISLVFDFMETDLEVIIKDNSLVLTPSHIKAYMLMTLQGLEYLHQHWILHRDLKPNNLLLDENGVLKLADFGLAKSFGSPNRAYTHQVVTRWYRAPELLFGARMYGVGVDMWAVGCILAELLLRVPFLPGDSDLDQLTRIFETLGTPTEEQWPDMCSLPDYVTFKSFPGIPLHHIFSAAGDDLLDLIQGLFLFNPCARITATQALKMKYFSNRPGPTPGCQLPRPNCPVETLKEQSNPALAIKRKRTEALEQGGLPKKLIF
# UniProt P50750, whole entry: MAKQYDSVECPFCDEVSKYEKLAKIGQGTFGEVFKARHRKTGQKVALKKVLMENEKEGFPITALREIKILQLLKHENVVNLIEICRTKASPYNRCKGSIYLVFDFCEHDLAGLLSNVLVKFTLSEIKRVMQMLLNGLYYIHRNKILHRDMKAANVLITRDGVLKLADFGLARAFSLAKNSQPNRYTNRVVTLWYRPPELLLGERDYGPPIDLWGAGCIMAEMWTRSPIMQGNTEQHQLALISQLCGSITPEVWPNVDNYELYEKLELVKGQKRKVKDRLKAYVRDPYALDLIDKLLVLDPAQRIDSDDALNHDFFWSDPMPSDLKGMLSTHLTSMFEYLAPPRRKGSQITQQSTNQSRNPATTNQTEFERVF
# UniProt P07333, whole entry: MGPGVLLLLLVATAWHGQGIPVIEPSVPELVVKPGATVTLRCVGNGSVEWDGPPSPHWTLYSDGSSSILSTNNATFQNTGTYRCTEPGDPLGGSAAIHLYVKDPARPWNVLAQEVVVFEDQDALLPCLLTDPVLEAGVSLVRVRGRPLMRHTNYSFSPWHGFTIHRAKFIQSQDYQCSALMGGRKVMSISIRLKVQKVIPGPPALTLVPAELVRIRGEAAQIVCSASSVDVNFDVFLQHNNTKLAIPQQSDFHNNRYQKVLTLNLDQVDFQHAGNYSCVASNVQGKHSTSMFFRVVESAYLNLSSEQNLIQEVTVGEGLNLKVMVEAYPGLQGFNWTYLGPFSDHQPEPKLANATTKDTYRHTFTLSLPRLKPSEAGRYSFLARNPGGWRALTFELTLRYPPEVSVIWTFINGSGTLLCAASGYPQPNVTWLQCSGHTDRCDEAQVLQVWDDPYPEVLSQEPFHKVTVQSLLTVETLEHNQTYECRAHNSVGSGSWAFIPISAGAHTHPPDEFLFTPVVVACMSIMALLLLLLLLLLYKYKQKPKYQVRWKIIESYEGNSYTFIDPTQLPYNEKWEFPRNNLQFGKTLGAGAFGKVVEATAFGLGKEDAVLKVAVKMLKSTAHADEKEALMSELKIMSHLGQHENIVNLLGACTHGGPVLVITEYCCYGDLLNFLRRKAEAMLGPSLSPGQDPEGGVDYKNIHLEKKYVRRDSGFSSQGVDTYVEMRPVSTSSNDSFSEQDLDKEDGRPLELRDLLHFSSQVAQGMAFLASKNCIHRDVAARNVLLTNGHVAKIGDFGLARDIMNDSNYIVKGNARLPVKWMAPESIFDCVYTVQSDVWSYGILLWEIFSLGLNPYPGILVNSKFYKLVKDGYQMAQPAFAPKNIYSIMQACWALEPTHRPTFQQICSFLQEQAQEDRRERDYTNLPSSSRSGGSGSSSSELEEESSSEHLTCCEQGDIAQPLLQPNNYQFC
# UniProt P48729: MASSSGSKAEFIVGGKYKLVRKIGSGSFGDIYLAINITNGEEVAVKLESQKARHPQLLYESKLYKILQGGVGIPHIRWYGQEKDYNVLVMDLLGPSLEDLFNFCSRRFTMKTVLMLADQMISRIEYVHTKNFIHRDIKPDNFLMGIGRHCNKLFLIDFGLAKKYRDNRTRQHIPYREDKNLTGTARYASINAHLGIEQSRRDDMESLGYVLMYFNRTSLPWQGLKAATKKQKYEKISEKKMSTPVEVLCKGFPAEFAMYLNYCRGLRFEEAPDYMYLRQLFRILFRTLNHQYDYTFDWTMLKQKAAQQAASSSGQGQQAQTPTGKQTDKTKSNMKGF
# UniProt P48730: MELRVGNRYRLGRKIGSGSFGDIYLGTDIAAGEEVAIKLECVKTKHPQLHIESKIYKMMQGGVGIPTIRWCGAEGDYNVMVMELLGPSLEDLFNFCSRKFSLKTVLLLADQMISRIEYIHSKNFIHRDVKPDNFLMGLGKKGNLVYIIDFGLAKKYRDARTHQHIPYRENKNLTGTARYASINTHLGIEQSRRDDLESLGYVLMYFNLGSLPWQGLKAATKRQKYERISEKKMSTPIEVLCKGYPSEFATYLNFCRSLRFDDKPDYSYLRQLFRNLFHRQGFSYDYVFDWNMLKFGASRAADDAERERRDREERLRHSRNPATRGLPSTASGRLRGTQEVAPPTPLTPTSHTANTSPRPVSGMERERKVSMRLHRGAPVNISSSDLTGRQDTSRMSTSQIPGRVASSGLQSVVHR
# UniProt Q08345: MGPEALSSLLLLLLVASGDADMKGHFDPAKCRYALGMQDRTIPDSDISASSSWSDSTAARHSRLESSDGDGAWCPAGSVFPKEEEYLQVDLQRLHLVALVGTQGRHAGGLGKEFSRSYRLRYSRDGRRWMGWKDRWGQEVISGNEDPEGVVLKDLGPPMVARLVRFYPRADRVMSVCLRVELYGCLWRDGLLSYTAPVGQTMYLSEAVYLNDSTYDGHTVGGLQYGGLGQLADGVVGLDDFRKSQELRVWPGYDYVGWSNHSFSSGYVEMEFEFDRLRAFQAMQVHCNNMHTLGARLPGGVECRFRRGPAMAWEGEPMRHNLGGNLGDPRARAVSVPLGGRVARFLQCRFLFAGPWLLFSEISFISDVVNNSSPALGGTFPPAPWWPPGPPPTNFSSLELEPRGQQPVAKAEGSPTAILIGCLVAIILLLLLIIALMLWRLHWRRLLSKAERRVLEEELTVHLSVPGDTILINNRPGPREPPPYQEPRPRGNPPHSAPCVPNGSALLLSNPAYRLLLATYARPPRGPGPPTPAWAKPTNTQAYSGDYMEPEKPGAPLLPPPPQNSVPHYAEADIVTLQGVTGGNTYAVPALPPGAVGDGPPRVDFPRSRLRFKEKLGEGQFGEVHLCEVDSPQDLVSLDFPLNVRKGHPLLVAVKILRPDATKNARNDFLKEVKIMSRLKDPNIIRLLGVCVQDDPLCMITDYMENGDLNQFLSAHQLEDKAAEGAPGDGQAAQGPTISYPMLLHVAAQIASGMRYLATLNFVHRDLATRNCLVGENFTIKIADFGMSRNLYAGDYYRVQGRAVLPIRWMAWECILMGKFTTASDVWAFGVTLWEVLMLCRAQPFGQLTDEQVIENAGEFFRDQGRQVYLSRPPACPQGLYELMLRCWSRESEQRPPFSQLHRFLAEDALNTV
# Counter-ions that a name gives are not always drawn. This is one part of the list. Hit calls seldom repeat between salt and free forms of one compound.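 Kinases were expressed as nanoluciferase fusions in K562 cells and luminescence was read every 4 h between 2 and 18 h as percent of control, DMSO set to 100% and a positive control to 0%. A time point counts as decreased when the signal drops significantly (2 sigma). The hit call is the authors' own, does not follow from the count of time points alone, and its rule is not shown.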
# Tests used:
# Assay in all cases: kinase-Nluc reporter destabilization hit call (1 = scored as downregulated) (binary); higher = compound decreases kinase abundance
# Conditions in all cases: K562; 2-18 h
# BRAF_V600E = system: BRAF_V600E
# BTK = BTK (UniProt Q06187)
# CAMK2A = CAMK2A (UniProt Q9UQM7)
# CAMK2G = CAMK2G (UniProt Q13555)
# CDK10 = CDK10 (UniProt Q15131)
# CDK2 = CDK2 (UniProt P24941)
# CDK3 = CDK3 (UniProt Q00526)
# CDK4 = CDK4 (UniProt P11802)
# CDK5 = CDK5 (UniProt Q00535)
# CDK6 = CDK6 (UniProt Q00534)
# CDK7 = CDK7 (UniProt P50613)
# CDK9 = CDK9 (UniProt P50750)
# CHEK2 = CHEK2 (UniProt O96017)
# CSF1R = CSF1R (UniProt P07333)
# CSK = CSK (UniProt P41240)
# CSNK1A1 = CSNK1A1 (UniProt P48729)
# CSNK1D = CSNK1D (UniProt P48730)
# DDR1 = DDR1 (UniProt Q08345)
# DYRK1B = DYRK1B (UniProt Q9Y463)
# DYRK2 = DYRK2 (UniProt Q92630)
Structure (SMILES),kinase-Nluc reporter destabilization hit call (BRAF_V600E),kinase-Nluc reporter destabilization hit call (BTK),kinase-Nluc reporter destabilization hit call (CAMK2A),kinase-Nluc reporter destabilization hit call (CAMK2G),kinase-Nluc reporter destabilization hit call (CDK10),kinase-Nluc reporter destabilization hit call (CDK2),kinase-Nluc reporter destabilization hit call (CDK3),kinase-Nluc reporter destabilization hit call (CDK4),kinase-Nluc reporter destabilization hit call (CDK5),kinase-Nluc reporter destabilization hit call (CDK6),kinase-Nluc reporter destabilization hit call (CDK7),kinase-Nluc reporter destabilization hit call (CDK9),kinase-Nluc reporter destabilization hit call (CHEK2),kinase-Nluc reporter destabilization hit call (CSF1R),kinase-Nluc reporter destabilization hit call (CSK),kinase-Nluc reporter destabilization hit call (CSNK1A1),kinase-Nluc reporter destabilization hit call (CSNK1D),kinase-Nluc reporter destabilization hit call (DDR1),kinase-Nluc reporter destabilization hit call (DYRK1B),kinase-Nluc reporter destabilization hit call (DYRK2)
O=C(O)c1cc(O)c2c(c1)[C@@H]([C@H]1c3cc(C(=O)O)cc(O)c3C(=O)c3c(O[C@@H]4O[C@H](CO)[C@@H](O)[C@H](O)[C@H]4O)cccc31)c1cccc(O[C@@H]3O[C@H](CO)[C@@H](O)[C@H](O)[C@H]3O)c1C2=O [Sennoside B] (2.5 µM),inactive: 0,inactive: 0,inactive: 0,inactive: 0,inactive: 0,inactive: 0,inactive: 0,inactive: 0,inactive: 0,inactive: 0,inactive: 0,inactive: 0,inactive: 0,inactive: 0,inactive: 0,inactive: 0,inactive: 0,inactive: 0,inactive: 0,inactive: 0
O=C(O)c1ccccc1Nc1cccc(C(F)(F)F)c1 [Flufenamic acid] (10 µM),inactive: 0,inactive: 0,inactive: 0,inactive: 0,inactive: 0,inactive: 0,inactive: 0,inactive: 0,inactive: 0,inactive: 0,inactive: 0,active: 1,inactive: 0,inactive: 0,inactive: 0,inactive: 0,inactive: 0,inactive: 0,inactive: 0,inactive: 0
COc1cc(C(C)=O)cc(OC)c1O [Acetosyringone] (10 µM),inactive: 0,inactive: 0,inactive: 0,inactive: 0,inactive: 0,inactive: 0,inactive: 0,inactive: 0,inactive: 0,inactive: 0,inactive: 0,inactive: 0,inactive: 0,inactive: 0,inactive: 0,inactive: 0,inactive: 0,inactive: 0,inactive: 0,inactive: 0
O=C1NC(=O)C(c2cnc3ccccn23)=C1c1cn2c3c(cc(F)cc13)CN(C(=O)N1CCCCC1)CC2 (2.5 µM),inactive: 0,inactive: 0,inactive: 0,inactive: 0,inactive: 0,inactive: 0,inactive: 0,inactive: 0,inactive: 0,inactive: 0,inactive: 0,inactive: 0,inactive: 0,inactive: 0,inactive: 0,inactive: 0,inactive: 0,inactive: 0,inactive: 0,inactive: 0
"CN1CC[C@H](c2c(O)cc(O)c3c(=O)cc(-c4ccc(C(F)(F)F)cc4Cl)oc23)[C@H]1CO [(2S,3R)-Voruciclib (hydrochloride)] (2.5 µM)",inactive: 0,inactive: 0,inactive: 0,inactive: 0,inactive: 0,inactive: 0,inactive: 0,inactive: 0,inactive: 0,inactive: 0,inactive: 0,inactive: 0,inactive: 0,inactive: 0,inactive: 0,inactive: 0,inactive: 0,inactive: 0,inactive: 0,inactive: 0
CN(C)c1ncnc2nc[nH]c12 [6-(Dimethylamino)purine] (10 µM),inactive: 0,inactive: 0,inactive: 0,inactive: 0,inactive: 0,inactive: 0,inactive: 0,inactive: 0,inactive: 0,inactive: 0,inactive: 0,inactive: 0,inactive: 0,inactive: 0,inactive: 0,inactive: 0,inactive: 0,inactive: 0,inactive: 0,inactive: 0
Nc1ncc(-c2ccc(C(=O)N3CCNCC3)cc2)nc1-c1ccc(C(F)(F)F)cc1 (10 µM),inactive: 0,inactive: 0,inactive: 0,inactive: 0,inactive: 0,inactive: 0,inactive: 0,inactive: 0,inactive: 0,inactive: 0,inactive: 0,inactive: 0,inactive: 0,inactive: 0,inactive: 0,inactive: 0,inactive: 0,inactive: 0,inactive: 0,inactive: 0
CC(C)(C)C(=O)N1N=CC[C@H]1c1ccccc1 (10 µM),inactive: 0,inactive: 0,inactive: 0,inactive: 0,inactive: 0,inactive: 0,inactive: 0,inactive: 0,inactive: 0,inactive: 0,inactive: 0,inactive: 0,inactive: 0,inactive: 0,inactive: 0,inactive: 0,inactive: 0,inactive: 0,inactive: 0,inactive: 0
C=C[C@H]1[C@H](O[C@@H]2O[C@H](CO)[C@@H](O)[C@H](O)[C@H]2OC(=O)c2c(O)cc(O)cc2-c2cccc(O)c2)OC=C2C(=O)OCC[C@H]21 [Amarogentin] (10 µM),inactive: 0,inactive: 0,inactive: 0,inactive: 0,inactive: 0,inactive: 0,inactive: 0,inactive: 0,inactive: 0,inactive: 0,inactive: 0,inactive: 0,inactive: 0,inactive: 0,inactive: 0,inactive: 0,inactive: 0,inactive: 0,inactive: 0,inactive: 0
Nc1cccc(S(=O)(=O)N2CCCN(S(=O)(=O)c3ccc4c(c3)OCCO4)CC2)c1 (10 µM),inactive: 0,inactive: 0,inactive: 0,inactive: 0,inactive: 0,inactive: 0,inactive: 0,inactive: 0,inactive: 0,inactive: 0,inactive: 0,inactive: 0,inactive: 0,inactive: 0,inactive: 0,inactive: 0,inactive: 0,inactive: 0,inactive: 0,inactive: 0
CCCCOc1ccc(CC/C=C2\SC(=O)N(CCN)C2=O)cc1 [K145 (hydrochloride)] (2.5 µM),inactive: 0,inactive: 0,inactive: 0,inactive: 0,inactive: 0,inactive: 0,inactive: 0,inactive: 0,inactive: 0,inactive: 0,inactive: 0,inactive: 0,inactive: 0,inactive: 0,inactive: 0,inactive: 0,inactive: 0,inactive: 0,inactive: 0,inactive: 0
CCc1c(C)sc(NC(=S)NC(=O)c2ccc(Cl)cc2)c1C(N)=O (10 µM),inactive: 0,inactive: 0,inactive: 0,inactive: 0,inactive: 0,inactive: 0,inactive: 0,inactive: 0,inactive: 0,inactive: 0,inactive: 0,inactive: 0,inactive: 0,inactive: 0,inactive: 0,inactive: 0,inactive: 0,inactive: 0,inactive: 0,inactive: 0
O=C(c1ccc(Nc2nccc(-c3cc4ccccc4s3)n2)cc1)N1CCC(N2CCCC2)CC1 (2.5 µM),inactive: 0,inactive: 0,inactive: 0,inactive: 0,inactive: 0,inactive: 0,inactive: 0,inactive: 0,inactive: 0,inactive: 0,inactive: 0,inactive: 0,inactive: 0,inactive: 0,inactive: 0,inactive: 0,inactive: 0,inactive: 0,inactive: 0,inactive: 0
CN(C)C(=O)c1ccc(S(=O)(=O)c2ccc(NC(=O)[C@@](C)(O)C(F)(F)F)c(Cl)c2)cc1 (10 µM),inactive: 0,inactive: 0,inactive: 0,inactive: 0,inactive: 0,inactive: 0,inactive: 0,inactive: 0,inactive: 0,inactive: 0,inactive: 0,inactive: 0,inactive: 0,inactive: 0,inactive: 0,inactive: 0,inactive: 0,inactive: 0,inactive: 0,inactive: 0
CC(C)c1ccc(CC(=O)N2CCN(c3ccc(C#N)nn3)CC2)cc1 (10 µM),inactive: 0,inactive: 0,inactive: 0,inactive: 0,inactive: 0,inactive: 0,inactive: 0,inactive: 0,inactive: 0,inactive: 0,inactive: 0,inactive: 0,inactive: 0,inactive: 0,inactive: 0,inactive: 0,inactive: 0,inactive: 0,inactive: 0,inactive: 0
Cc1cc(Nc2cc(CN3CCOCC3)c3nc(C)c(Cc4ccc(Cl)cc4F)n3n2)n[nH]1 [Gandotinib] (2.5 µM),inactive: 0,inactive: 0,inactive: 0,inactive: 0,inactive: 0,inactive: 0,inactive: 0,inactive: 0,inactive: 0,inactive: 0,inactive: 0,inactive: 0,inactive: 0,inactive: 0,inactive: 0,inactive: 0,inactive: 0,inactive: 0,inactive: 0,inactive: 0
O=c1nc(N2CCOCC2)oc2c(-c3cccc4c3sc3ccccc34)cccc12 (10 µM),inactive: 0,inactive: 0,inactive: 0,inactive: 0,inactive: 0,inactive: 0,inactive: 0,inactive: 0,inactive: 0,inactive: 0,inactive: 0,inactive: 0,inactive: 0,inactive: 0,inactive: 0,inactive: 0,inactive: 0,inactive: 0,inactive: 0,inactive: 0

# An excerpt from above in order of number of heavy atoms, smallest number first.
Structure (SMILES),kinase-Nluc reporter destabilization hit call (BRAF_V600E),kinase-Nluc reporter destabilization hit call (BTK),kinase-Nluc reporter destabilization hit call (CAMK2A),kinase-Nluc reporter destabilization hit call (CAMK2G),kinase-Nluc reporter destabilization hit call (CDK10),kinase-Nluc reporter destabilization hit call (CDK2),kinase-Nluc reporter destabilization hit call (CDK3),kinase-Nluc reporter destabilization hit call (CDK4),kinase-Nluc reporter destabilization hit call (CDK5),kinase-Nluc reporter destabilization hit call (CDK6),kinase-Nluc reporter destabilization hit call (CDK7),kinase-Nluc reporter destabilization hit call (CDK9),kinase-Nluc reporter destabilization hit call (CHEK2),kinase-Nluc reporter destabilization hit call (CSF1R),kinase-Nluc reporter destabilization hit call (CSK),kinase-Nluc reporter destabilization hit call (CSNK1A1),kinase-Nluc reporter destabilization hit call (CSNK1D),kinase-Nluc reporter destabilization hit call (DDR1),kinase-Nluc reporter destabilization hit call (DYRK1B),kinase-Nluc reporter destabilization hit call (DYRK2)
CN(C)c1ncnc2nc[nH]c12 [6-(Dimethylamino)purine] (10 µM),inactive: 0,inactive: 0,inactive: 0,inactive: 0,inactive: 0,inactive: 0,inactive: 0,inactive: 0,inactive: 0,inactive: 0,inactive: 0,inactive: 0,inactive: 0,inactive: 0,inactive: 0,inactive: 0,inactive: 0,inactive: 0,inactive: 0,inactive: 0
COc1cc(C(C)=O)cc(OC)c1O [Acetosyringone] (10 µM),inactive: 0,inactive: 0,inactive: 0,inactive: 0,inactive: 0,inactive: 0,inactive: 0,inactive: 0,inactive: 0,inactive: 0,inactive: 0,inactive: 0,inactive: 0,inactive: 0,inactive: 0,inactive: 0,inactive: 0,inactive: 0,inactive: 0,inactive: 0
CN(C)C(=O)c1ccc(S(=O)(=O)c2ccc(NC(=O)[C@@](C)(O)C(F)(F)F)c(Cl)c2)cc1 (10 µM),inactive: 0,inactive: 0,inactive: 0,inactive: 0,inactive: 0,inactive: 0,inactive: 0,inactive: 0,inactive: 0,inactive: 0,inactive: 0,inactive: 0,inactive: 0,inactive: 0,inactive: 0,inactive: 0,inactive: 0,inactive: 0,inactive: 0,inactive: 0
